From patent publication US20200317642A1, “AMINE-SUBSTITUTED HETEROCYCLIC COMPOUNDS AS EHMT2 INHIBITORS AND DERIVATIVES THEREOF” (Epizyme, Inc., priority 2017, published 2020)
Structures were worked out from names or drawings and are uncertain.

The chains behind the UniProt entries cited, without tags or fusion partners. Residues count along the entry.
UniProt Q96KQ7, 913-1193 limits assumed: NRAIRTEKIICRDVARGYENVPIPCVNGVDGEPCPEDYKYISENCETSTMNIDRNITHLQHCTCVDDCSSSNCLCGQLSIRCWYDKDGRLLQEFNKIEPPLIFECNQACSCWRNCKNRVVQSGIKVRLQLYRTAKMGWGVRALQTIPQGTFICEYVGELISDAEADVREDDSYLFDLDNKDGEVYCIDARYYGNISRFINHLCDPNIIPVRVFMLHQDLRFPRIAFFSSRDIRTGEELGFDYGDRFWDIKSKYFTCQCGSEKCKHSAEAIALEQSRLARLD
UniProt Q9H9B1, whole entry: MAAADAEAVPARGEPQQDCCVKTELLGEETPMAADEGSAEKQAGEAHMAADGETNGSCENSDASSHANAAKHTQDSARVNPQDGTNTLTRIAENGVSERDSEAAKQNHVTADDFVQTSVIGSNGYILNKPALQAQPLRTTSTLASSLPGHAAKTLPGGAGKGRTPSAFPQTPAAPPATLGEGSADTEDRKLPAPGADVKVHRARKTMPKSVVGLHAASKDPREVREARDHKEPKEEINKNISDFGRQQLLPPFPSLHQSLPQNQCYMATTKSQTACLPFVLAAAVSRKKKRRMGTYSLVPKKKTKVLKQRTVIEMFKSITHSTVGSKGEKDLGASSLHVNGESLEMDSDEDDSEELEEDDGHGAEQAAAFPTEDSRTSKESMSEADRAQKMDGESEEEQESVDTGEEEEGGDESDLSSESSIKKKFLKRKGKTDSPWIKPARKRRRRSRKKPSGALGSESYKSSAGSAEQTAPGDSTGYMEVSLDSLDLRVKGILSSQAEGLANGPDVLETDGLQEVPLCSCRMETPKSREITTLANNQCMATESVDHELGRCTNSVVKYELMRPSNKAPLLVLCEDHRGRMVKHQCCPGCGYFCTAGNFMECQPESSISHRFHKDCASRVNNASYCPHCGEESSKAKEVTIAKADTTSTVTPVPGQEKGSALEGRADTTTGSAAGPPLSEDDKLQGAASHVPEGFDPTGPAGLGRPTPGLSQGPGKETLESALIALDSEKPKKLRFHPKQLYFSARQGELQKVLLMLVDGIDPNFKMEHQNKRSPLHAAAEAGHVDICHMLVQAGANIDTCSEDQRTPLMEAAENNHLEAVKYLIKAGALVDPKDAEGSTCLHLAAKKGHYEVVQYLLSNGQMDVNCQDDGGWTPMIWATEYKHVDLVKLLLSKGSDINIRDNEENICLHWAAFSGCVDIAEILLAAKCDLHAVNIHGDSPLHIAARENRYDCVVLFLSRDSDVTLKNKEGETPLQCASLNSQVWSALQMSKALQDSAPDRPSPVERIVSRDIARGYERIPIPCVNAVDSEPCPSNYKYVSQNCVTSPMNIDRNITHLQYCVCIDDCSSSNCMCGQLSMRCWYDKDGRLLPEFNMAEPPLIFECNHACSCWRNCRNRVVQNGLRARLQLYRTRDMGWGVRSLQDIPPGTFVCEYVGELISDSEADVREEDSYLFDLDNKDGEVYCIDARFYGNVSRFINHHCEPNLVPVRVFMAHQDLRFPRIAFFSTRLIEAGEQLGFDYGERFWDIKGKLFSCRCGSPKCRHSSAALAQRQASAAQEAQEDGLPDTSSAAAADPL

Legend:
[1] = biological target: human EHMT2 913-1193 (Homo sapiens, UniProt Q96KQ7); experiment: EHMT2 enzyme assay on histone peptide substrate; settings: read-out: EHMT2 PEP (IC50 μM); Table 3; histone H3 1-15 peptide, balanced conditions
Source text: Recombinant purified human EHMT2 913-1193 ([…]) synthesized by Viva was used for all experiments. Biotinylated histone peptides were synthesized by Biopeptide and HPLC-purified to >95% purity. Streptavidin Flashplates and seals were purchased from PerkinElmer and 384 Well V-bottom Polypropylene Plates were from Greiner. ^3H-labeled S-adenosylmethionine (^3H-SAM) was obtained from American Radiolabeled Chemicals with a specific activity of 80 Ci/mmol. Unlabeled SAM and S-adenosylhomocysteine (SAH) were obtained from American Radiolabeled Chemicals and Sigma-Aldrich respectively. Flashplates were washed in a Biotek ELx-405 with 0.1% Tween. 384-well Flashplates and 96-well filter binding plates were read on a TopCount microplate reader (PerkinElmer). Compound serial dilutions were performed on a Freedom EVO (Tecan) and spotted into assay plates using a Thermo Scientific Matrix PlateMate (Thermo Scientific). Reagent cocktails were added by Multidrop Combi (Thermo Scientific).
10-point curves of test compounds were made on a Freedom EVO (Tecan) using serial 3-fold dilutions in DMSO, beginning at 2.5 mM (final top concentration of compound was 50 t and the DMSO was 2%). […] 384-well Flashplates were read on a TopCount microplate reader (PerkinElmer).

[2] = biological target: EHMT1 (Homo sapiens, UniProt Q9H9B1); experiment: EHMT1 PEP enzyme assay; assay type: biochemical; settings: read-out: EHMT1 PEP (IC50 μM); Table 3
[3] = tested on: H3K9me2 in MDA-MB-231 cells; experiment: MDA-MB-231 H3K9me2 in-cell western assay (EHMT2 ICW); settings: read-out: EHMT2 ICW (IC50 μM), Table 3
Source text: MDA-MB-231 cell line was purchased from ATCC (Manassas, Va., USA). RPMI/Glutamax medium, Penicillin-Streptomycin, Heat Inactivated Fetal Bovine Serum, and D-PBS were purchased from Life Technologies (Grand Island, N.Y., USA). Odyssey blocking buffer, 800 CW goat anti-mouse IgG (H+L) antibody, and Licor Odyssey Infrared Scanner were purchased from Licor Biosciences, Lincoln, Nebr., USA. H3K9me2 mouse monoclonal antibody (Cat #1220) was purchased from Abcam (Cambridge, Mass., USA). 16% Paraformaldehyde was purchased from Electron Microscopy Sciences, Hatfield, Pa., USA). […]
Compound (100 nL) was added directly to 384-well cell plate. […] Plates were allowed to dry at room temperature then imaged on a Licor Odyssey Infrared Scanner (Licor Biosciences) which measured integrated intensity at 700 nm and 800 nm wavelengths. […]
First, the ratio for each well was determined by: […]
The average of the ratio values for each well was calculated and used to determine the percent inhibition for each test well in the plate. […] Percent inhibition was calculated as: […]
IC50 curves were generated using triplicate wells per concentration of compound. […] IC50 values were calculated using a non-linear regression (variable slope-four parameter fit model) with by the following formula: […]

- IC50 [1]: > 10 µM
- IC50 [2]: > 10 µM
- IC50 [3]: > 10 µM
SMILES: CNc1cc(C)nc(Nc2ccc(C)c(CNCCN3CCCC3)c2)n1 [22]
